Measured data: PubChem BioAssay AID1224830 (NIAID, 2016)
Here is a random part of about 18,000 reagents tested. In the full data, about 2,900 (16%) were called active. 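Calls are made per well; low scores hint the gene aids the LPS response, high scores that it dampens it.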 Repeated entries: four replicate wells of each siRNA pool.

Aim: 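Regulators of TLR4 signalling towards TNF-alpha in macrophage-like cells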 (primary screen)
Cells: human THP-1 monocytic leukaemia cells, TNF dual-luciferase reporter clone, PMA-differentiated to macrophage-like cells
Reagents: siRNA pool against human genes, 50 nM
Duration: LPS for 4 h, given about 3 days after siRNA transfection
Conditions: bacterial LPS (TLR4 ligand), 10 ng/ml
Read-out: 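Ratio of firefly to renilla light, scaled to the plate median and expressed as a robust z-score per replicate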
Reading the numbers: TNF reporter robust z-score: higher = stronger TNF reporter response to LPS
Active means: 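Each well counts as active if its z-score is over 2.8 or under -1.5; controls are left without a call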

Target gene | TNF reporter robust z-score | outcome
H3C4 | 0 | inactive
H3C4 | 0.48 | inactive
H3C4 | -0.05 | inactive
H3C4 | 1.39 | inactive
SMCO3 | -1.09 | inactive
SMCO3 | -1.15 | inactive
SMCO3 | -0.79 | inactive
SMCO3 | -1.19 | inactive
RARRES2 | -0.35 | inactive
RARRES2 | 0.34 | inactive
RARRES2 | 0.7 | inactive
RARRES2 | 1.48 | inactive
TFCP2L1 | 0.67 | inactive
TFCP2L1 | 1.33 | inactive
TFCP2L1 | 2.69 | inactive
TFCP2L1 | 1.46 | inactive
UBL5 | -2.33 | active
UBL5 | -2.28 | active
UBL5 | -2.4 | active
UBL5 | -2.3 | active
LRIT2 | 0.2 | inactive
LRIT2 | 0.7 | inactive
LRIT2 | -0.16 | inactive
LRIT2 | 1.96 | inactive
NMRK1 | -1.18 | inactive
NMRK1 | -0.89 | inactive
NMRK1 | -0.38 | inactive
NMRK1 | 1.44 | inactive

4 entries from above, arranged by “TNF reporter robust z-score”, low to high.
Target gene | TNF reporter robust z-score | outcome
SMCO3 | -1.15 | inactive
SMCO3 | -1.09 | inactive
SMCO3 | -0.79 | inactive
H3C4 | 1.39 | inactive

Next reagents:
Target gene | TNF reporter robust z-score | outcome
MSRA | -0.44 | inactive
MSRA | -0.32 | inactive
MSRA | 0.4 | inactive
MSRA | -0.27 | inactive
ABHD3 | 0.02 | inactive
ABHD3 | -0.1 | inactive
ABHD3 | -0.66 | inactive
ABHD3 | 0.2 | inactive
INSL3 | 0.09 | inactive
INSL3 | -1.03 | inactive
INSL3 | -1.29 | inactive
UBE2E3 | 0.41 | inactive
UBE2E3 | 3.74 | active
UBE2E3 | 0.02 | inactive
UBE2E3 | 1.52 | inactive
ILRUN | 1.32 | inactive
ILRUN | 0.72 | inactive
ILRUN | 0.85 | inactive
ILRUN | 1.61 | inactive
